Test results published in patent publication US20180237756.
Positions count from the first letter of the chain named. For some assays here: The comparison behind a weaker result is the experiment's own reference, which may not be listed here. Tags and fusion partners may be left off the protein sequences shown. For some assays here: Construct, isoform or probe ends are uncertain for at least one entry. For some assays here: Negatives hold for the conditions tested.

Tests used:
[1] = molecular target: T1, TN (TgoT Y409N) (Thermococcus gorgonarius) (UniProt P56689); assay: activity assay; conditions: Y409N only marginally improves RNA polymerase activity; template taken from Methods; protein in a lysate after overexpression
T1 sequence (limits assumed): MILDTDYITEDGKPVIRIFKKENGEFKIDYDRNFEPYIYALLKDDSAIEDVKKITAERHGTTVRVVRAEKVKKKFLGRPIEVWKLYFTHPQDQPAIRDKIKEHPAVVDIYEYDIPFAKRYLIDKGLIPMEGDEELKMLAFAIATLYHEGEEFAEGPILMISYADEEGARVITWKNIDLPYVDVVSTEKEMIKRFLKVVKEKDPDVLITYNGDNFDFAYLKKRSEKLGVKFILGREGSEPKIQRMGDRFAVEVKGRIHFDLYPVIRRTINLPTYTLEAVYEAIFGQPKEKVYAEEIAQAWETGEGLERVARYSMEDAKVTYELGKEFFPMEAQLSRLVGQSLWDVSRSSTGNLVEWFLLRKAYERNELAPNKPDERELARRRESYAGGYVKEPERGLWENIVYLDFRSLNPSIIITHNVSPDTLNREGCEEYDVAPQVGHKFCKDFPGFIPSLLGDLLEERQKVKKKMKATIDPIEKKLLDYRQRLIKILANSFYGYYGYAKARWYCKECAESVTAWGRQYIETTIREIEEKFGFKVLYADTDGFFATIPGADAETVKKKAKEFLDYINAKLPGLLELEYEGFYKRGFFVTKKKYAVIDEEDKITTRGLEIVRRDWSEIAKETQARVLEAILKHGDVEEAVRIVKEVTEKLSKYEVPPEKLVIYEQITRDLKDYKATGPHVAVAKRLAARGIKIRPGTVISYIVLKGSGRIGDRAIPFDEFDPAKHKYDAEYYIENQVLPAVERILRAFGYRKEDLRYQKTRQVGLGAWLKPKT

[2] = molecular target: T2, TNK (TgoT Y409N E664K) (Thermococcus gorgonarius) (UniProt P56689); assay: activity assay; conditions: RNA polymerase activity significantly better than TNQ; template taken from Methods; protein in a lysate after overexpression
T2 sequence (limits assumed): T1 sequence (limits assumed) with E664K

[3] = molecular target: T3, TgoT DNA polymerase (V93Q D141A E143A A485L) (Thermococcus gorgonarius) (UniProt P56689); assay: activity assay; conditions: template taken from Methods, purified recombinant protein
T3 sequence (limits assumed): T1 sequence (limits assumed) with N409Y

[4] = molecular target: T3, TgoT DNA polymerase (V93Q D141A E143A A485L) (Thermococcus gorgonarius); assay: EMSA; conditions: reference polymerase, 3- to 10-fold lower affinity than E664K mutant, purified recombinant protein, label: 5'FITC on K0, 5'biotin on TempK4
[5] = molecular target: T4, D4 polymerase (Thermococcus gorgonarius) (UniProt P56689); assay: activity assay; conditions: FD strand is RNA; RNA synthesis from RNA primer; template taken from Methods; protein in a lysate after overexpression; DNA:RNA hybrid; variant of FD DNA primer / TempN
T4 sequence (limits assumed): T1 sequence (limits assumed) with N409Y, P657T, E658Q, K659H, Y663H, E664Q, D669A, K671N, T676I

[6] = molecular target: T5, TYK (TgoT E664K) (Thermococcus gorgonarius) (UniProt P56689); assay: EMSA; conditions: K0 strand is RNA; E664K second gate mutation increases affinity vs E664 parent; Kd fit, individual Kd not given; mutant construct (TYK/TGK) not specified; 1x Thermopol, 1 mM EDTA; purified recombinant protein; label: 5'FITC on K0, 5'biotin on TempK4; DNA:RNA hybrid; variant of K0 DNA primer / TempK4
T5 sequence (limits assumed): T1 sequence (limits assumed) with N409Y, E664K

Sequence: CCCCTTATTAGCGTTTGCCA / CTCACGATGCTGGACCAGATAAGCACTTAGCCACGTAGTGCTGTTCGGTAATCGATCTGGCAAACGCTAATAAGGGG [FD DNA primer / TempN]
- activity on this sequence [1]: less active
- activity on this sequence [2]: active
- activity on this sequence ([3]; RNA synthesis stalls): less active

Sequence: GCACGGCAGCACGTG / ACTGCGATGACTGTACTCGTCTAGTAGCACTGCACGTGCTGCCGTGC [K0 DNA primer / TempK4]
- binding result [4]: binds more weakly

Sequence: CCCCTTATTAGCGTTTGCCA / CTCACGATGCTGGACCAGATAAGCACTTAGCCACGTAGTGCTGTTCGGTAATCGATCTGGCAAACGCTAATAAGGGG [FD RNA primer / TempN]
- activity on this sequence (NTP incorporations) [5]: > 20
- activity on this sequence ([3]; FD strand is RNA, no RNA synthesis from RNA primer, DNA:RNA hybrid, variant of FD DNA primer / TempN): not active

Sequence: GCACGGCAGCACGTG / ACTGCGATGACTGTACTCGTCTAGTAGCACTGCACGTGCTGCCGTGC [K0 RNA primer / TempK4]
- binding result [6]: binds
- binding result ([4]; K0 strand is RNA, DNA:RNA hybrid, variant of K0 DNA primer / TempK4): binds more weakly
